# Article PMC11285139
# By UniProt entry, the sequences of proteins in these tests, tags left out.
# UniProt P31947: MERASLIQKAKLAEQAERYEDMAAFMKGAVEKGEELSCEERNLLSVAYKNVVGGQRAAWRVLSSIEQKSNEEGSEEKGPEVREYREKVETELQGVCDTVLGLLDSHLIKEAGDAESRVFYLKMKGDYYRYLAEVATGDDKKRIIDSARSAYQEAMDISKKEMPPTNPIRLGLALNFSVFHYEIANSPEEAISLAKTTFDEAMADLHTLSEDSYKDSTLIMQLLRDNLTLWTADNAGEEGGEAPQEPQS
# UniProt P15311: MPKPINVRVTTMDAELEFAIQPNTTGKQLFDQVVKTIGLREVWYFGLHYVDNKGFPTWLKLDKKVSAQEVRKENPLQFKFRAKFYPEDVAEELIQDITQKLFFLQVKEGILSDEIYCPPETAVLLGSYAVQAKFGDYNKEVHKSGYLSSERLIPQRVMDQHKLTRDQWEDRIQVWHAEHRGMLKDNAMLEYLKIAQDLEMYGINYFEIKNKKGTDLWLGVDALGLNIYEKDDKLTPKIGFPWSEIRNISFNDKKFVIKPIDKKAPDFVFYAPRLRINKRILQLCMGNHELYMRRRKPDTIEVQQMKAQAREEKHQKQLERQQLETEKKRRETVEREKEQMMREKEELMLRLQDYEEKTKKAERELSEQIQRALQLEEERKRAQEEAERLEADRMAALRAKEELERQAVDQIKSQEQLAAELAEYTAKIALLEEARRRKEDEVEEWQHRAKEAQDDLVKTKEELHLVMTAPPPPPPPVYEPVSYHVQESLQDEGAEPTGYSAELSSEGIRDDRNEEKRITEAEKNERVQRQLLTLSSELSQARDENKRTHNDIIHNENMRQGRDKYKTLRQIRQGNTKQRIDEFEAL
# UniProt P26038: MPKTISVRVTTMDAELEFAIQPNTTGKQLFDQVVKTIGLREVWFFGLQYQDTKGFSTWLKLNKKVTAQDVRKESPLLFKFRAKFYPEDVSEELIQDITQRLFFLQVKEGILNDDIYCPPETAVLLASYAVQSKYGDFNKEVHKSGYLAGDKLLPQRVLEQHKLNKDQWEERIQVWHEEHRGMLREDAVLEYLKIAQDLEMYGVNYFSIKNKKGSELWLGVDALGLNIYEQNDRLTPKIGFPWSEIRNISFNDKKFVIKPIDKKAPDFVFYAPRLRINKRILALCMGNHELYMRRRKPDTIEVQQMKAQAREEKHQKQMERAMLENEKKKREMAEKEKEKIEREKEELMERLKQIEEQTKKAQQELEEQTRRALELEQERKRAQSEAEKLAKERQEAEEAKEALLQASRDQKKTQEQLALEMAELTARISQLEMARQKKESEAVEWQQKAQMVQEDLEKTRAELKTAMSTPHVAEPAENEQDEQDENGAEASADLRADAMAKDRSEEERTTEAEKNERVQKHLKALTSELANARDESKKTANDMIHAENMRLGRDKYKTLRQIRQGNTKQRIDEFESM
# UniProt P10644: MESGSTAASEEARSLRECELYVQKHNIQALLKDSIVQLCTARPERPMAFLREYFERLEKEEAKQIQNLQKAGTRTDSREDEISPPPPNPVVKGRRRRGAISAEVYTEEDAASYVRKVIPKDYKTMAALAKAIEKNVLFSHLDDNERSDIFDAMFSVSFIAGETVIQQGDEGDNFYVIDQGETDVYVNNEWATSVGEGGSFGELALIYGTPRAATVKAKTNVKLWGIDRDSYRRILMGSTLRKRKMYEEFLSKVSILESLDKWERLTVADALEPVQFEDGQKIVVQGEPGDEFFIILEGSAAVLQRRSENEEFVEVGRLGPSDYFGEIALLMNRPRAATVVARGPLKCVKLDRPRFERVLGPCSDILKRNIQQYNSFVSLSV
# UniProt Q13526: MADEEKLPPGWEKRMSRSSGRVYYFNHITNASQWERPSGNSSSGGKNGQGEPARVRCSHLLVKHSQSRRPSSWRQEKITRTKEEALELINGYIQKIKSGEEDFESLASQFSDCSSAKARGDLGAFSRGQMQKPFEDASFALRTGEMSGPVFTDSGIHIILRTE
# UniProt P27986: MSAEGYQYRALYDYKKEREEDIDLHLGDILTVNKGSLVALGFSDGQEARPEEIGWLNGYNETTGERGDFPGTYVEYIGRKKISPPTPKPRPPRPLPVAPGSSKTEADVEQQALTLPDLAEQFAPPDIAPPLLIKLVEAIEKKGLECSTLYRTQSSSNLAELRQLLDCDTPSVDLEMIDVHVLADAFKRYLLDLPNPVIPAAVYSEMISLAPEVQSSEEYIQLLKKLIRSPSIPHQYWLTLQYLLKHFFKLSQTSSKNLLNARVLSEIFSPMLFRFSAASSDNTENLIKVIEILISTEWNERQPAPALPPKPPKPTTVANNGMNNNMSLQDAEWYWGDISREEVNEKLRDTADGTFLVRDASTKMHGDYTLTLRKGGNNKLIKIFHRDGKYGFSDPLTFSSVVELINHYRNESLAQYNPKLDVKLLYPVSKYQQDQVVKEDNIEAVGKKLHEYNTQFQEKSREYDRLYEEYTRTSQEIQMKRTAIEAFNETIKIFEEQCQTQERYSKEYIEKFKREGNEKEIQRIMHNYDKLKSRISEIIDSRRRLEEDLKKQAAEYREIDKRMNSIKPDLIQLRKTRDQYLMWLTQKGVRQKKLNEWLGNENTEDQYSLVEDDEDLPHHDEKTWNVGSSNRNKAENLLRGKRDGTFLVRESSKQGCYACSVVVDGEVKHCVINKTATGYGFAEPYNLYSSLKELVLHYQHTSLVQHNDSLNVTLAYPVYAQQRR
# UniProt P35241: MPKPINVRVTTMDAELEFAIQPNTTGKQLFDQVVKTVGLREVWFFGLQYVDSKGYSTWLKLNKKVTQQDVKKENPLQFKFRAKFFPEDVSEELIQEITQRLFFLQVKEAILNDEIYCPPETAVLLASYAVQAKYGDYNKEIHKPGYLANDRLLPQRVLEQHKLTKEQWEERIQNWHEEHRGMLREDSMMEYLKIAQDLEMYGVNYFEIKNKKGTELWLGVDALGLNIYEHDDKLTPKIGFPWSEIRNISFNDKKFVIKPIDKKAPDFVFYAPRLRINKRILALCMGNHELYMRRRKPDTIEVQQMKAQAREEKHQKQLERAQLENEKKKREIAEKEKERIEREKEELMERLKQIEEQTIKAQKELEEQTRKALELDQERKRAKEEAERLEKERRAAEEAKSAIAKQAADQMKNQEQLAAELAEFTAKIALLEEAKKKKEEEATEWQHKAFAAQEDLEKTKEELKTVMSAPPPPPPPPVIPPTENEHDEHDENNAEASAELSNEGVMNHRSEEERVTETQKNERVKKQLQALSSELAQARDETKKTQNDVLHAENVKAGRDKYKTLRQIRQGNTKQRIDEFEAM
# UniProt P62140: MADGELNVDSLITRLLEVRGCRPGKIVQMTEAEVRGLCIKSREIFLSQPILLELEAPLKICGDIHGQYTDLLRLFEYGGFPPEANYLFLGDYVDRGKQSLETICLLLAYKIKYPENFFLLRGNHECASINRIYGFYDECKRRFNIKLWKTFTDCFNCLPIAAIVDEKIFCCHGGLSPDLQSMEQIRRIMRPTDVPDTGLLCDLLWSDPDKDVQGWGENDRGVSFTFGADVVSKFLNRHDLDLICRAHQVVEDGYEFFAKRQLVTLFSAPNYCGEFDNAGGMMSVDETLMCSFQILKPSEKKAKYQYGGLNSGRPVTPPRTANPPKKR
# B1: Glutaredoxin-3/ PKC-interacting cousin of thioredoxin (PICOT) (protein, UniProt O76003 1-335)
# chain: MAAGAAEAAVAAVEEVGSAGQFEELLRLKAKSLLVVHFWAPWAPQCAQMNEVMAELAKELPQVSFVKLEAEGVPEVSEKYEISSVPTFLFFKNSQKIDRLDGAHAPELTKKVQRHASSGSFLPSANEHLKEDLNLRLKKLTHAAPCMLFMKGTPQEPRCGFSKQMVEILHKHNIQFSSFDIFSDEEVRQGLKAYSSWPTYPQLYVSGELIGGLDIIKELEASEELDTICPKAPKLEERLKVLTNKASVMLFMKGNKQEAKCGFSKQILEILNSTGVEYETFDILEDEEVRQGLKAYSNWPTYPQLYVKGELVGGLDIVKELKENGELLPILRGEN
# B2: Heterogeneous nuclear ribonucleoprotein A0 (protein, UniProt Q13151 1-305)
# chain: MENSQLCKLFIGGLNVQTSESGLRGHFEAFGTLTDCVVVVNPQTKRSRCFGFVTYSNVEEADAAMAASPHAVDGNTVELKRAVSREDSARPGAHAKVKKLFVGGLKGDVAEGDLIEHFSQFGTVEKAEIIADKQSGKKRGFGFVYFQNHDAADKAAVVKFHPIQGHRVEVKKAVPKEDIYSGGGGGGSRSSRGGRGGRGRGGGRDQNGLSKGGGGGYNSYGGYGGGGGGGYNAYGGGGGGSSYGGSDYGNGFGGFGSYSQHQSSYGPMKSGGGGGGGGSSWGGRSNSGPYRGGYGGGGGYGGSSF
# B3: Twinfilin-2 (protein, UniProt Q6IBS0 1-349)
# chain: MAHQTGIHATEELKEFFAKARAGSVRLIKVVIEDEQLVLGASQEPVGRWDQDYDRAVLPLLDAQQPCYLLYRLDSQNAQGFEWLFLAWSPDNSPVRLKMLYAATRATVKKEFGGGHIKDELFGTVKDDLSFAGYQKHLSSCAAPAPLTSAERELQQIRINEVKTEISVESKHQTLQGLAFPLQPEAQRALQQLKQKMVNYIQMKLDLERETIELVHTEPTDVAQLPSRVPRDAARYHFFLYKHTHEGDPLESVVFIYSMPGYKCSIKERMLYSSCKSRLLDSVEQDFHLEIAKKIEIGDGAELTAEFLYDEVHPKQHAFKQAFAKPKGPGGKRGHKRLIRGPGENGDDS
# Target: Flag-HA-tagged CRABP1 (Cellular Retinoic Acid Binding Protein 1) (UniProt P29762)
# Assay: affinity purification with mass spectrometry; Flag-IP (M2-Flag agarose beads) from lysate of HEK293T cells transfected with Flag-HA-CRABP1, empty Flag-HA vector as control; cells in DCC medium 24 h before harvest (no atRA); Co-IP buffer 50 mM Tris-HCl pH 8.0, 150 mM NaCl, 10 mM MgCl2, 0.2% NP-40, 10% glycerol; candidates: enrichment value > 0, then CRAPome screening
row,binding,Molecule
1,binds,14-3-3 protein sigma/ Strafilin (from UniProt P31947 1-248)
2,binds,Ezrin (from UniProt P15311 1-586)
3,binds,Moesin (from UniProt P26038 1-577)
4,binds,PKA-RI alpha (endogenous in HEK293T) (from UniProt P10644 1-381)
5,binds,Peptidyl-prolyl cis-trans isomerase NIMA-interacting 1 (PIN1) (from UniProt Q13526 1-163) (enzyme)
6,binds,Phosphatidylinositol 3-kinase (PI3K) regulatory subunit alpha (p85) (from UniProt P27986 1-724)
7,binds,Radixin (from UniProt P35241 1-583)
8,binds,Serine/threonine-protein phosphatase (PP1) (from UniProt P62140 1-327) (enzyme)
9,binds,B1
10,binds,B2
11,binds,B3

# No constants are given. Whether binding was seen depends on the method and setting. Binding seen in cells or lysates may run through a third protein. Here binding means that the protein was enriched with, or labelled near, the bait; the list need not be complete.
